Results are given in words; binding and its absence hold for the method and conditions named. Some entries that bind do so weakly or less than the wild type.
What was measured:
[1] = biological target: recombinant human SIRPα variant 2 protein (human) (UniProt P78324); experiment: ELISA, coated antigen
[2] = biological target: recombinant human SIRPα variant 2 protein (human) (UniProt P78324); experiment: ELISA, coated antigen (FIG. 1)

Sequences of proteins named here, by UniProt entry; tags and fusion partners are left off. A change or cut given only in a name is not applied to a line headed by its entry. A line that says so, or that is headed by a name, gives the form on record, which may keep a tag or linker.
recombinant human SIRPα variant 2 protein (P78324, form named): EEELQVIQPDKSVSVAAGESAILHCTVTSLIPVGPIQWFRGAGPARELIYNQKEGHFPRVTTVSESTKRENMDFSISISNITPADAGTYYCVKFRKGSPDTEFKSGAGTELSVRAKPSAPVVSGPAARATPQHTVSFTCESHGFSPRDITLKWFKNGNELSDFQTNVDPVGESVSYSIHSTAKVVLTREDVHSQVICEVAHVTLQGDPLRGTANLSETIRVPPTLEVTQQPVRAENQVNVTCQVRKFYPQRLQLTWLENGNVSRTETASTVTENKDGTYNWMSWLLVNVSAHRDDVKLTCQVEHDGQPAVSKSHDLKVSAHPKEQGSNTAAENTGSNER

B1: 300A6A6 (antibody, V domains shown)
VH: QVQLQQSGTELVKPGSSVKISCKASGYTFTSNYIHWIRQQPGNGLEWIGWIYPGDGDTNYNQKFNGKATLTADKSSSTAYMQLSSLTSEDYAVYFCAINYGGIWFAYWGQGTLVTVSS
VL: DIQMTQSPSSMSASLGDRVTITCQASQDIGNKLIWFQQKPGKSPRLMIHYVTNLPGGVPLRFSGSRSGSDYSLTISSLESEDMADYYCLQYKQNPLTFGSGTKLEIK
[1]
  binding: binds
[2]
  binding: binds

Reference: patent publication US20240101716A1
